No constants are given. Whether binding was seen depends on the method and setting. In cells and extracts the contact can be indirect. Some entries that bind do so weakly or less than the wild type.
B1: E74-like factor epithelial-specific transcription factor 3 (Elf3) (protein, UniProt Q3UPW2 1-391)
chain: MAATCEISNVFSNYFNAMYSSEDPTLAPAPPTTFGTEDLVLTLNNQQMTLEGPGPQTRSQRDRTDPLAVLHLAEKASWTSERPQFWSKTQVLEWISYQVEKNKYDASSIDFSRCDMDGATLCSCALEELRLVFGPLGDQLHAQLRDLTSNSSDELSWIIELLEKDGMSFQESLGDSGPFDQGSPFAQELLDDGRQASPYYCSTYGPGAPSPGSSDVSTARTATPQSSHASDSGGSDVDLDLTESKVFPRDGFPDYKKGEPKHGKRKRGRPRKLSKEYWDCLEGKKSKHAPRGTHLWEFIRDILIHPELNEGLMKWENRHEGVFKFLRSEAVAQLWGQKKKNSNMTYEKLSRAMRYYYKREILERVDGRRLVYKFGKNSSGWKEEEVGESRN

By UniProt entry, the sequences of proteins in these tests, tags left out. Residues count along the entry.
UniProt O88907: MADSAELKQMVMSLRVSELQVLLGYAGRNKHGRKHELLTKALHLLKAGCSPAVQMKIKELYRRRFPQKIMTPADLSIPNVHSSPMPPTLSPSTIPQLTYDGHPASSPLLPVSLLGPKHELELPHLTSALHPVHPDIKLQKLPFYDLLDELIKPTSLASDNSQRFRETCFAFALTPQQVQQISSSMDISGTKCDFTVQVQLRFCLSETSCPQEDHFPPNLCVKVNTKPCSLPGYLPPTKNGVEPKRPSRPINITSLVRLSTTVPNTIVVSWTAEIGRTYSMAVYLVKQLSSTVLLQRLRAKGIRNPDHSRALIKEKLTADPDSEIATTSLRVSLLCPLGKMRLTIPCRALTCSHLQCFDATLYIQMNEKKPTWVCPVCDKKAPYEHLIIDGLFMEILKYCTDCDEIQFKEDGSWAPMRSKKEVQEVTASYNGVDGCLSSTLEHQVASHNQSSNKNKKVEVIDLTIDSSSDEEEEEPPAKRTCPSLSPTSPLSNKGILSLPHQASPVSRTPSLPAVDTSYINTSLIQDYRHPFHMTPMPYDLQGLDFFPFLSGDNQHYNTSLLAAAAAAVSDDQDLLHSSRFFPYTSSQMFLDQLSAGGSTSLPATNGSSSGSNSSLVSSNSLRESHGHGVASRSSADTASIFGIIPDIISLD
UniProt P25799, residues 1-431: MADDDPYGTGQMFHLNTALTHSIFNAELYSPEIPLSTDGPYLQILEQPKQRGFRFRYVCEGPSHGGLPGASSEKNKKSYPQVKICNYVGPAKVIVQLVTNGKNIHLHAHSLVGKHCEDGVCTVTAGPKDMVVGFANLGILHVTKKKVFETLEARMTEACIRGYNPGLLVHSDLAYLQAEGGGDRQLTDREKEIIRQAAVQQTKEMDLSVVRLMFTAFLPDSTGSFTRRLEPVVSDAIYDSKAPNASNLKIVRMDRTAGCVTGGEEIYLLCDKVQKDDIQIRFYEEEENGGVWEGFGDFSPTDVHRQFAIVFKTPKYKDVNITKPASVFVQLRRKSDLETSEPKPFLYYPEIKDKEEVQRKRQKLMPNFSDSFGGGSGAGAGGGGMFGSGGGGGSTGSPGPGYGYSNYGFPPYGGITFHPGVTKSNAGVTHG
UniProt Q60636: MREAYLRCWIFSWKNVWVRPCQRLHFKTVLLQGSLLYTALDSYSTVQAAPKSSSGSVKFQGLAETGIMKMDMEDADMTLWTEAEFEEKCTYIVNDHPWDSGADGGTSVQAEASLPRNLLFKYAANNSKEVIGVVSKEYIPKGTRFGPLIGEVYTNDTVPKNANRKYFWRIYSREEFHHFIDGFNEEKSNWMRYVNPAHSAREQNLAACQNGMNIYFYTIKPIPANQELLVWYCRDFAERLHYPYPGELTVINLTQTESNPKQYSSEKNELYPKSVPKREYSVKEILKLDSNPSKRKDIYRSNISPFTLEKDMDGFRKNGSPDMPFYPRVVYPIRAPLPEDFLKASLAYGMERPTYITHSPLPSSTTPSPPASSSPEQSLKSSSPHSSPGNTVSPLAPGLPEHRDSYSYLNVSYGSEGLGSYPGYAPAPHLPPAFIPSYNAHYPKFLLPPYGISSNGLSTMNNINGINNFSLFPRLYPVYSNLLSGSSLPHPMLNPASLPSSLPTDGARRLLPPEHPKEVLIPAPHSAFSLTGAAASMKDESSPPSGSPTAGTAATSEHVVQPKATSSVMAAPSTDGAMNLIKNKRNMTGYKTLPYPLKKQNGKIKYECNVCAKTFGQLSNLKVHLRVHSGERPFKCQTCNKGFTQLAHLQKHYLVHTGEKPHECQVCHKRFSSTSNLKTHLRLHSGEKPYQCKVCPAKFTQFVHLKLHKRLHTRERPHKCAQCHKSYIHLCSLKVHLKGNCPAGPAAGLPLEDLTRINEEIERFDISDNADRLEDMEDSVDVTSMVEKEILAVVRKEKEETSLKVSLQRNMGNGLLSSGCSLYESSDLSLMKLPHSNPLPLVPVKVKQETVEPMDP

How the values were obtained:
[1] = target: protein inhibitor of activated Stat1 (Pias1) (mouse (endogenous in IEC4.1)) (UniProt O88907); assay: co-IP; endogenous proteins; nuclei extracts of IEC4.1 cells stimulated with IFN-γ; whole-cell extracts as input control
[2] = target: NF-κB p50 subunit (mouse (endogenous in IEC4.1)) (UniProt P25799); assay: co-IP; endogenous proteins; IEC4.1 cells lysed in 20 mM Tris-HCl pH 8.0, 150 mM NaCl, 1% NP-40; 500 μg lysate protein with primary antibody at 4°C overnight, protein A-Sepharose, Western blot; cells infected with C. parvum or stimulated with IFN-γ (2 h), some treated with control, XR_001779380 or Prdm1 siRNA or Prdm1-/-

| binding [1] | binding [2] | Molecule |
| --- | --- | --- |
| binds |  | PR/SET domain 1 (Prdm1) (from UniProt Q60636 1-856) |
|  | binds | B1 |
